From PMC11926786 (Bioconjugate Chemistry, 2025)
Some peptides are written in HELM: one residue between dots, names in brackets for other building blocks, links after the first $. *1 amine or outer side, *2 acyl side, *3 side chain or, on linkers, in order; H or OH if unused. Side-chain parts run from the residue outwards. The star is where a group is joined. γGlu = O=C(O)[C@H](CCC(=O)[*:2])N[*:1]; Palmitoyl = CCCCCCCCCCCCCCCC(=O)*

Assays:
[1] = peptide made by a vendor; details: whole synthesis, acetate salt
[2] = peptide made by a vendor; details: whole synthesis, acetate salt; remark: listed apart in the source

| Substance | final purity (method not given) [1] | final purity (method not given) [2] |
| --- | --- | --- |
| PEPTIDE1{H.A.E.G.T.F.T.S.D.V.S.S.Y.L.E.G.Q.A.A.K.E.F.I.A.W.L.V.K.G.R.G.[am]}$$$$V2.0 | 99.2% | – |
| H-HAEGTFTSDVSK([γGlu-Palmitoyl])YLEGQAAREFIAWLVRGRG-NH2 (SMILES CCCCCCCCCCCCCCCC(=O)N[C@@H](CCC(=O)NCCCC[C@H](NC(=O)[C@H](CO)NC(=O)[C@@H](NC(=O)[C@H](CC(=O)O)NC(=O)[C@H](CO)NC(=O)[C@@H](NC(=O)[C@H](Cc1ccccc1)NC(=O)[C@@H](NC(=O)CNC(=O)[C@H](CCC(=O)O)NC(=O)[C@H](C)NC(=O)[C@@H](N)Cc1c[nH]cn1)[C@@H](C)O)[C@@H](C)O)C(C)C)C(=O)N[C@@H](Cc1ccc(O)cc1)C(=O)N[C@@H](CC(C)C)C(=O)N[C@@H](CCC(=O)O)C(=O)NCC(=O)N[C@@H](CCC(N)=O)C(=O)N[C@@H](C)C(=O)N[C@@H](C)C(=O)N[C@@H](CCCNC(=N)N)C(=O)N[C@@H](CCC(=O)O)C(=O)N[C@@H](Cc1ccccc1)C(=O)N[C@H](C(=O)N[C@@H](C)C(=O)N[C@@H](Cc1c[nH]c2ccccc12)C(=O)N[C@@H](CC(C)C)C(=O)N[C@H](C(=O)N[C@@H](CCCNC(=N)N)C(=O)NCC(=O)N[C@@H](CCCNC(=N)N)C(=O)NCC(N)=O)C(C)C)[C@@H](C)CC)C(=O)O) | – | 95.6% |
| H-HAEGTFTSDVSSYLEGK([γGlu-Palmitoyl])AAREFIAWLVRGRG-NH2 (SMILES CCCCCCCCCCCCCCCC(=O)N[C@@H](CCC(=O)NCCCC[C@H](NC(=O)CNC(=O)[C@H](CCC(=O)O)NC(=O)[C@H](CC(C)C)NC(=O)[C@H](Cc1ccc(O)cc1)NC(=O)[C@H](CO)NC(=O)[C@H](CO)NC(=O)[C@@H](NC(=O)[C@H](CC(=O)O)NC(=O)[C@H](CO)NC(=O)[C@@H](NC(=O)[C@H](Cc1ccccc1)NC(=O)[C@@H](NC(=O)CNC(=O)[C@H](CCC(=O)O)NC(=O)[C@H](C)NC(=O)[C@@H](N)Cc1c[nH]cn1)[C@@H](C)O)[C@@H](C)O)C(C)C)C(=O)N[C@@H](C)C(=O)N[C@@H](C)C(=O)N[C@@H](CCCNC(=N)N)C(=O)N[C@@H](CCC(=O)O)C(=O)N[C@@H](Cc1ccccc1)C(=O)N[C@H](C(=O)N[C@@H](C)C(=O)N[C@@H](Cc1c[nH]c2ccccc12)C(=O)N[C@@H](CC(C)C)C(=O)N[C@H](C(=O)N[C@@H](CCCNC(=N)N)C(=O)NCC(=O)N[C@@H](CCCNC(=N)N)C(=O)NCC(N)=O)C(C)C)[C@@H](C)CC)C(=O)O) | – | 96.3% |
| PEPTIDE1{H.[Aib].E.G.T.F.T.S.D.V.S.S.Y.L.E.G.Q.A.A.[Ksema].E.F.I.A.W.L.V.R.G.R.G.[am]}$$$$V2.0 | – | approximately 96% |
| PEPTIDE1{H.[Kpal].E.G.T.F.T.S.D.V.S.S.Y.L.E.G.Q.A.A.R.E.F.I.A.W.R.V.R.G.R.G.[am]}$$$$V2.0 | – | 96% |
